These are yes or no findings as the source states them, for the method shown. In cells and extracts the contact can be indirect. Here binding means that the protein was enriched with, or labelled near, the bait; the list need not be complete. No binding means not detected with the bait.

Assay [1] addresses Myc-tagged Scc1 (Drosophila). Briefly: affinity purification with mass spectrometry; 1 mg total protein extract of S2 cells expressing Myc-tagged Scc1 (control RNAi or san RNAi) in NB buffer; anti-c-Myc magnetic beads, 1 hr at 4 °C; LC-MS/MS; cells with an empty plasmid as negative control.
In assay [2] the target is Scc1/Rad21/Vtd (endogenous Scc1) (Drosophila (endogenous in S2 cells)). Briefly: affinity purification with mass spectrometry; 1 mg total protein extract of Drosophila S2 cells (control RNAi or san RNAi) in NB buffer; rabbit anti-Scc1 then Dynabeads Protein G, 4 °C; LC-MS/MS; pre-immune serum as negative control.

B1: Dalmatian/Sororin (protein, UniProt Q9VH89 1-857)
chain: MVRTRPVPCVPSPDVNTATRRNPGRPKKQSIGADLSTTISKPGRPKKLSIGADLTTIRKPGRPKKLGADLTTIIRKPGRPTKLSNKQSLTALNEPECRIRKCVVKIRRIKVKNGVVSEISRNDAPDVDASTFEPARNSTMYIPSKVQKSTQPQNIKENVAGPETSPCQQRIRSKSPSGPAAEISPKKPPRFFHRDQPLTRTRSSVTRNVFDFLSQSQIEDDSDREDPAADIIQRLVKDGKACVMVRSRKIGKPRAKRTAKKVRPVGNRRKVSTKDNEPEPVKVVPKSIEPRLQKPSRSLSTIFEPEEDYSNDSEHGYVQPIEVPVQVHVEPSTSKQAHEGAYSNLARSVMLNQTQAQNPLPSTDRRRELINMARQLVSTPLNRRAPPVTDVSATTTALSPIAHQSPNAVRTAGGKSPWRVSDDSPLPNTFMFGFNNSQMPSYSSDHVQRRHVYVPDSPVEHAENIPHEESICPPLHEQNHDSNANDSNEENRPPPTISKSMSINDQESEENAENFVHLPNPRRTLQKRTPFKDINILEVVTLPSWKKNVTATVSKEITPTRVAPRPMATSSPAQRSQTRSNLFGFDDDFACEDIPRKSTTPSKGIAPTSMSLNREVTPALANRNQTEVNTFGCNEILPCENIPKEKETNTEERTSSSQNLFGFDEFITESQDSPANFTGLSQNVNLHDKLHRLAELRPRDGELPQVSYTSIRSDCLGESHSKQTDIRYMLCSTMIAPPRPAKRKPAAPTARESMGLFRVDQDEPEQSFADKQPRRTYVKERPQRKRKKRVQILYIESESEDEDEQDSHDKSLDSPEKKRHHVKRPRRDIEHEAKLEQFVTSFNKQCEEVEKFPVIIE
With B1, the binding result in assay [1] and in assay [2] was “no binding” in each case.
